Assay results from PMC2762494.
Results are given in words; binding and its absence hold for the method and conditions named.

Sequences of proteins named here, by UniProt entry; tags and fusion partners are left off.
UniProt Q9Q8N5: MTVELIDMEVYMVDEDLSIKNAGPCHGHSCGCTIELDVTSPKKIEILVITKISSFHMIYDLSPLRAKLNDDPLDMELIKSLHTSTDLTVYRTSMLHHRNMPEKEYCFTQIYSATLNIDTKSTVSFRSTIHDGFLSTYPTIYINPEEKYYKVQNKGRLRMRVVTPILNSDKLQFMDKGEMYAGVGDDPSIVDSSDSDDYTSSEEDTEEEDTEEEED
UniProt P19838: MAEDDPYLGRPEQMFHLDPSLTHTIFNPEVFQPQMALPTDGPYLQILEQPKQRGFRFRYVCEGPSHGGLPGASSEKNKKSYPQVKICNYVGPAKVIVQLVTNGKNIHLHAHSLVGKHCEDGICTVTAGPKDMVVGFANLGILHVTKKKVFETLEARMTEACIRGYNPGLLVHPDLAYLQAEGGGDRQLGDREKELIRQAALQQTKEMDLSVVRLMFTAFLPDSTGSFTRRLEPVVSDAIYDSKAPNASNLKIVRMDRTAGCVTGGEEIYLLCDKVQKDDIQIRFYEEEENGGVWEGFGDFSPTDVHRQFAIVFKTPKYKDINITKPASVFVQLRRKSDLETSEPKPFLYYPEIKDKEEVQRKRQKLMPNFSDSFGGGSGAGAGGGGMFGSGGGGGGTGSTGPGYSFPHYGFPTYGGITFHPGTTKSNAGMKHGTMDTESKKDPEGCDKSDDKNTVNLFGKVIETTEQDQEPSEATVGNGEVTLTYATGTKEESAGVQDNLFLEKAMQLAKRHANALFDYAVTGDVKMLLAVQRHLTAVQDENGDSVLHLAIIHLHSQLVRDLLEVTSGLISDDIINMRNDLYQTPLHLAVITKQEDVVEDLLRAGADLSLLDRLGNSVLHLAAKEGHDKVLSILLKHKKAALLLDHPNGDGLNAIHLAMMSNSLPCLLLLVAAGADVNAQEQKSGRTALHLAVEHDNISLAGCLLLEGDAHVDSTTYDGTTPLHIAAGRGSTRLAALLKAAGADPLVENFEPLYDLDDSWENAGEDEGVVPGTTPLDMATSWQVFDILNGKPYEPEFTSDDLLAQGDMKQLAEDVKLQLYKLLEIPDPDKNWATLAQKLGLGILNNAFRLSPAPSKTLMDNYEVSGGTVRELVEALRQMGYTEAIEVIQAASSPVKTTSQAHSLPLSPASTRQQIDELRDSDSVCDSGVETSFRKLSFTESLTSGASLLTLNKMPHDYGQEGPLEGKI

Biological target: GST-tagged M063 protein of myxoma virus (myxoma virus) (UniProt Q9Q8N5)
Test: AlphaScreen or HTRF; lysates of co-transfected BSR T7/5 cells; anti-GST acceptor beads and Nickel Chelate donor beads; PBS with 0.1% BSA, room temperature

“Myc/His tagged human NF-κB1 p105 (from UniProt P19838 1-968)” was tested. Which binding did it give?
The binding was “no binding”.
